# From patent publication US20120316105A1, “Polymyxin Derivates Useful As Antibacterial Agents” (priority 2011, published 2012)
# At least one peptide structure holds a part that was inferred or is arguable (an end, a ring closure or a residue). For at least one compound, name, drawing or mass did not settle the structure. Bridge positions count the residues as written; N and C are the ends. Square brackets hold non-standard residues; d marks the D form. Peptide text beside a SMILES is read from it. * marks the point of attachment. Benzoyl(4-OPh) = O=C(c1ccc(Oc2ccccc2)cc1)*; Benzoyl(4-Ph) = O=C(c1ccc(-c2ccccc2)cc1)*; Quinoline3carbonyl = O=C(c1cnc2ccccc2c1)*; 2Naphthoyl = O=C(c1ccc2ccccc2c1)*; X23 = O=C(c1cnnc(-c2ccccc2)c1)*; X7 = O=C(c1ccnc(-c2ccccc2F)c1)*; X8 = O=C(c1cc(-c2ccccc2)ccc1F)*; X1 = CC[C@H](C)CCCCC(=O)*; Dab = NCC[C@H](N)C(=O)O; Dap = NC[C@H](N)C(=O)O
# Test system: KP-5016, ESBL+ clinical isolate of Klebsiella pneumoniae (SHV-5)
# Assay: Minimum inhibitory concentration (MIC, CLSI), KP-5016
# Type: cell-based
# Settings: K. pneumoniae KP-5016; overnight incubation, lower of duplicate values; trifluoroacetate salt (Example 1 and PMB sulfate)
# Description: Minimum bactericidal concentration (MBC, mg/L), minimum inhibitory concentration (MIC, mg/L), and human renal proximal tubule epithelial cell line cytotoxicity concentration 50% (hRPTEC, TC50, micromolar) for compounds of Formula I are listed in Table 2. The compounds of Formula I were tested as the corresponding trifluoroacetate salt except for Example 1 which was tested as the sulfate salt. For Table 2 below: PMB=polymyxin B as the sulfate salt (Bedford Laboratories, pharmaceutical grade); PMB1=polymyxin B1 as the trifluoroacetate salt; Nona=polymyxin B nonapeptide as the trifluoroacetate salt. […]
# The in vitro antibacterial activity of compounds of Formula I was evaluated by MIC testing according to Clinical and Laboratory Standards Institute (CLSI). […]
# The MIC determination is a standard laboratory method for evaluating the antibacterial activity of a compound. […] The MIC is then determined by visually inspecting the drug effect at each concentration, and identifying the lowest drug concentration that has inhibited bacterial growth as compared to the drug free control. […]
# The MIC values described in Table 2 below were derived from assays wherein each test compound was evaluated in duplicate. […] While a single MIC is reported for each compound and each microorganism, the reader should not conclude that each compound was only tested once. […]
row,Structure (SMILES),KP-5016 MIC [µg/mL]
1,CC(C)C[C@@H]1NC(=O)[C@@H](Cc2ccccc2)NC(=O)[C@H](CCN)NC(=O)[C@@H](NC(=O)[C@H](CN)NC(=O)[C@@H](NC(=O)[C@H](CCN)NC(=O)c2ccc(Oc3ccccc3)cc2)[C@@H](C)O)CCNC(=O)[C@H]([C@@H](C)O)NC(=O)[C@H](CCN)NC(=O)[C@H](CCN)NC1=O [Example 42] ({Benzoyl(4-OPh)}-[Dab]T[Dap][Dab][Dab][dF]L[Dab][Dab]T; lactam 4-C),16
2,CC(C)C[C@@H]1NC(=O)[C@@H](Cc2ccccc2)NC(=O)[C@H](CCN)NC(=O)[C@@H](NC(=O)[C@H](CN)NC(=O)[C@@H](NC(=O)[C@H](CCN)NC(=O)c2ccc(-c3ccccc3)cc2)[C@@H](C)O)CCNC(=O)[C@H]([C@@H](C)O)NC(=O)[C@H](CCN)NC(=O)[C@H](CCN)NC1=O [Example 45] ({Benzoyl(4-Ph)}-[Dab]T[Dap][Dab][Dab][dF]L[Dab][Dab]T; lactam 4-C),16

# Test system: KP-3700, ESBL+ clinical isolate of Klebsiella pneumoniae
# Assay: Minimum inhibitory concentration (MIC, CLSI), KP-3700
# Type: cell-based
# Settings: K. pneumoniae KP-3700; overnight incubation, lower of duplicate values; trifluoroacetate salt (Example 1 and PMB sulfate)
# Description: Minimum bactericidal concentration (MBC, mg/L), minimum inhibitory concentration (MIC, mg/L), and human renal proximal tubule epithelial cell line cytotoxicity concentration 50% (hRPTEC, TC50, micromolar) for compounds of Formula I are listed in Table 2. The compounds of Formula I were tested as the corresponding trifluoroacetate salt except for Example 1 which was tested as the sulfate salt. For Table 2 below: PMB=polymyxin B as the sulfate salt (Bedford Laboratories, pharmaceutical grade); PMB1=polymyxin B1 as the trifluoroacetate salt; Nona=polymyxin B nonapeptide as the trifluoroacetate salt. PMB1 and Nona were prepared using the solid phase methodology described in the experimental section herein.
# The in vitro antibacterial activity of compounds of Formula I was evaluated by MIC testing according to Clinical and Laboratory Standards Institute (CLSI). See: Clinical and Laboratory Standards Institute. Methods for Dilution Antimicrobial Susceptibility Tests for Bacteria that Grow Aerobically; Approved Standard-Eighth Edition. CLSI document M7-A8 [ISBN 1-56238-689-1]. Clinical and Laboratory Standards Institute, 940 West Valley Road, Suite 1400, Wayne, Pa. 19087-1898 USA, 2006; also Clinical and Laboratory Standards Institute. Performance Standards for Antimicrobial Susceptibility Testing; Twentieth Informational Supplement. CLSI document M100-S20 [ISBN 1-56238-716-2]. Clinical and Laboratory Standards Institute. Methods for Determining Bactericidal Activity of Antimicrobial Agents; Approved Guideline. CLSI document M26-A (ISBN 1-56238-384-1). CLSI, 940 West Valley Road, Suite 1400, Wayne, Pa. 19087-1898 USA, 1999.
# The MIC determination is a standard laboratory method for evaluating the antibacterial activity of a compound. The MIC represents the lowest drug concentration that inhibits visible growth of bacteria following overnight incubation. […] Typically, the drug concentration range is broken down into 2-fold increments (e.g. 0.06 mg/L, 0.12 mg/L, 0.25 mg/L, 0.50 mg/L, 1.0 mg/L, etc.) and the various drug concentrations are all individually incubated overnight with approximately the same number of bacteria. The MIC is then determined by visually inspecting the drug effect at each concentration, and identifying the lowest drug concentration that has inhibited bacterial growth as compared to the drug free control. Typically, bacteria continue to grow at drug concentrations lower than the MIC and don't grow at concentrations at and above the MIC.
# The MIC values described in Table 2 below were derived from assays wherein each test compound was evaluated in duplicate. In cases where the duplicate values varied by 0-2-fold, the lower of the two values was reported below. Generally speaking, if the duplicate values varied by more than 2-fold, the assay was considered non-valid and was repeated until the variation between duplicate runs was ≦2-fold. In line with the CLSI guidelines referred to above, both control organisms and reference compounds were utilized in each MIC assay to provide proper quality control. MIC values generated with these control organisms and reference compounds were required to fall within a defined range for the assay to be considered valid and be included herein. Those skilled in the art will recognize that MIC values can and do vary from experiment to experiment. Generally speaking, it should be recognized that MIC values often vary +/−2-fold from experiment to experiment. While a single MIC is reported for each compound and each microorganism, the reader should not conclude that each compound was only tested once. Several of the compounds were subjected to multiple tests. The data reported in Table 2 is reflective of the compounds relative activity and different MICs may have been generated on these occasions in line with the guidelines described above.
# The following bacterial strains were used in these MIC determinations:
# KP-3700 is an ESBL+clinical isolate of Klebsiella pneumoniae obtained in 2006; and […]
row,Structure (SMILES),KP-3700 MIC [µg/mL]
1,CC(C)C[C@@H]1NC(=O)[C@@H](Cc2ccccc2)NC(=O)[C@H](CCN)NC(=O)[C@@H](NC(=O)[C@H](CN)NC(=O)[C@@H](NC(=O)[C@H](CCN)NC(=O)c2ccnc(-c3ccccc3F)c2)[C@@H](C)O)CCNC(=O)[C@H]([C@@H](C)O)NC(=O)[C@H](CCN)NC(=O)[C@H](CCN)NC1=O [Example 5] (X7-[Dab]T[Dap][Dab][Dab][dF]L[Dab][Dab]T; lactam 4-C),0.125
2,CC(C)C[C@@H]1NC(=O)[C@@H](Cc2ccccc2)NC(=O)[C@H](CCN)NC(=O)[C@@H](NC(=O)[C@H](CN)NC(=O)[C@@H](NC(=O)[C@H](CCN)NC(=O)c2ccc3ccccc3c2)[C@@H](C)O)CCNC(=O)[C@H]([C@@H](C)O)NC(=O)[C@H](CCN)NC(=O)[C@H](CCN)NC1=O [Example 6] (2Naphthoyl-[Dab]T[Dap][Dab][Dab][dF]L[Dab][Dab]T; lactam 4-C),0.125
3,CC(C)C[C@@H]1NC(=O)[C@@H](Cc2ccccc2)NC(=O)[C@H](CCN)NC(=O)[C@@H](NC(=O)[C@H](CN)NC(=O)[C@@H](NC(=O)[C@H](CCN)NC(=O)c2cnnc(-c3ccccc3)c2)[C@@H](C)O)CCNC(=O)[C@H]([C@@H](C)O)NC(=O)[C@H](CCN)NC(=O)[C@H](CCN)NC1=O [Example 11] (X23-[Dab]T[Dap][Dab][Dab][dF]L[Dab][Dab]T; lactam 4-C),0.125
4,CC(C)C[C@@H]1NC(=O)[C@@H](Cc2ccccc2)NC(=O)[C@H](CCN)NC(=O)[C@@H](NC(=O)[C@H](CN)NC(=O)[C@@H](NC(=O)[C@H](CCN)NC(=O)c2cnc3ccccc3c2)[C@@H](C)O)CCNC(=O)[C@H]([C@@H](C)O)NC(=O)[C@H](CCN)NC(=O)[C@H](CCN)NC1=O [Example 23] (Quinoline3carbonyl-[Dab]T[Dap][Dab][Dab][dF]L[Dab][Dab]T; lactam 4-C),0.125
5,CC(C)C[C@@H]1NC(=O)[C@@H](Cc2ccccc2)NC(=O)[C@H](CCN)NC(=O)[C@@H](NC(=O)[C@H](CN)NC(=O)[C@@H](NC(=O)[C@H](CCN)NC(=O)c2cc(-c3ccccc3)ccc2F)[C@@H](C)O)CCNC(=O)[C@H]([C@@H](C)O)NC(=O)[C@H](CCN)NC(=O)[C@H](CCN)NC1=O [Example 34] (X8-[Dab]T[Dap][Dab][Dab][dF]L[Dab][Dab]T; lactam 4-C),0.125
6,CC[C@H](C)CCCCC(=O)N[C@@H](CCN)C(=O)N[C@H](C(=O)N[C@@H](CN)C(=O)N[C@H]1CCNC(=O)[C@H]([C@@H](C)O)NC(=O)[C@H](CCN)NC(=O)[C@H](CCN)NC(=O)[C@H](CC(C)C)NC(=O)[C@@H](Cc2ccccc2)NC(=O)[C@H](CCN)NC1=O)[C@@H](C)O [Example 43] (X1-[Dab]T[Dap][Dab][Dab][dF]L[Dab][Dab]T; lactam 4-C),0.125
